The source of these data is PMC1479810.

Sequences of proteins named here, by UniProt entry; tags and fusion partners are left off. Residues count along the entry.
UniProt P37023, residues 22-503: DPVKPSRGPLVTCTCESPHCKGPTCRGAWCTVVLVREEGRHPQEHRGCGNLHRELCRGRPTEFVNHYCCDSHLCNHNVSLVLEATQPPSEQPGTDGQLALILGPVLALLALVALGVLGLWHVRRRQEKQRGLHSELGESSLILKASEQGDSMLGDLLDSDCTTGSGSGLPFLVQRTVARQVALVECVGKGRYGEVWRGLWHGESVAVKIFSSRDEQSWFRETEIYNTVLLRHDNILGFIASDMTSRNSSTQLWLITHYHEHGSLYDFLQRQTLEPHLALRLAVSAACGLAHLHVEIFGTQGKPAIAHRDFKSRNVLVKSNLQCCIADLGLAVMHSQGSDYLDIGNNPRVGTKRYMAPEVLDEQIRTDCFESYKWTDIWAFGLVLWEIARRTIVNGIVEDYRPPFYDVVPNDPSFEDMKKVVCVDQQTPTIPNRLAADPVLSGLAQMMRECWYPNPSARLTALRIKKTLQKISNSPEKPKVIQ
UniProt P62139: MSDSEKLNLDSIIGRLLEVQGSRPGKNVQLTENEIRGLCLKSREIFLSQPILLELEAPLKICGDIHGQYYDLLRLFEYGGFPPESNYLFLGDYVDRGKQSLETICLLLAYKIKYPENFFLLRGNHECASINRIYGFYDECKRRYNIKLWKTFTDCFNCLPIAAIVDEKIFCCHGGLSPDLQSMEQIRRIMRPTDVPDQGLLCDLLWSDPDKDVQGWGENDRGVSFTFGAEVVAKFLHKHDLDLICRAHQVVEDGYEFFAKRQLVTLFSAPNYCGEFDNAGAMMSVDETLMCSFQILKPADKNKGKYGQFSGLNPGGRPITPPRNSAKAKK

Experiment [1] deals with wild-type (wt) ALK1/HA (human) (UniProt P37023). As to the kind of experiment: co-IP; COS-7 cells transfected with eGFP-PP1α and wtALK1/HA, with or without Flag-Smad7; whole cell lysates immunoprecipitated with HA antibody, immunoblotted with PP1c antiserum.
Experiment [2] deals with eGFP-PP1α (293T cells) (rabbit) (UniProt P62139). As to the kind of experiment: co-IP; data not shown; ALK1 and eGFP-PP1α ectopically expressed in 293T cells; ALK1 labelled by cross-linking to 125I-TGF-β and co-immunoprecipitated with eGFP-PP1α.

These are yes or no findings as the source states them, for the method shown. Binding seen in cells or lysates may run through a third protein. Some binding calls cover weakened binding; strength is not graded here.

Regarding “eGFP-PP1α (from UniProt P62139 1-330) (enzyme)”, the binding result in experiment [1] was “binds”.

As to “ALK1 (ectopically expressed in 293T cells, cross-linked to 125I-TGF-β) (from UniProt P37023 22-503) (receptor)”, in experiment [2], the binding result was “binds”.
